Measured values as given in PubChem BioAssay AID2685 (National Center for Advancing Translational Sciences (NCATS), 2010).
Hit rate of the full screen: of about 320,000 compounds, about 2,100 (0.66%) were called active. The inconclusive results got no clear call from the source; some entries with a clear call stand among them for comparison. Calls come from the whole dose curve; as a rule, active = well fitted inhibition curve with a large enough effect in the signal ratio, with a control signal flat (not every such curve was filed as active); inconclusive = small, poorly fitted or top-dose-only effect, or effect the other way, or a change in a side signal; inactive = flat fitted curve, though single readings scatter; the % refers to the signal ratio. Potencies beside an inconclusive call are fits to weak or partial responses and may not hold up.

Assay: qHTS Assay for Lipid Storage Modulators in Drosophila S3 Cells
Conditions: BODIPY lipid droplet fluorescence, 18-24 h, cells fed with added oleic acid; lipid storage change, negative = inhibition: at 46.1 µM (top of the series) unless noted
Outline: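 Drosophila S3 cells got compounds at several concentrations plus oleic acid (400 uM solution). Laser-scanning cytometry with 488 nm excitation read lipid droplets at 500-530 nm and cells at 575-640 nm. Percent activity was relative to 20 uM Triacsin C.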
% is set by controls: 0 for no effect and ±100 for the full control effect; potency is the fitted concentration of half-maximal effect.

| Structure (SMILES) | Potency | lipid storage change, negative = inhibition |
| --- | --- | --- |
| COc1cc(NC(C(=O)Nc2cccc(C(C)=O)c2)c2ccccc2)cc(OC)c1OC (centres undefined) | inconclusive: 16.4 µM [activator, single point] |  |
| CCOc1cc(CNc2ccc3c(c2)CCC3)ccc1O | inconclusive: 29.1 µM [rising, single point] |  |
| Cc1cc(C)c(OCC(=O)OCC(=O)NCC2CCCCC2)c(C)c1 |  | inconclusive: 59.8% |
| CN(C)N1C(N)=C(C#N)C(c2ccc(F)cc2)C2=C1CCCC2=O (centres undefined) |  | inconclusive: -180% |
| CCOc1ccccc1C(=O)NCc1ccco1 | inconclusive: 0.651 µM [activator, full curve, poor fit] |  |
| Cc1ccc(C(=O)Nc2sc(C)c(-c3ccccc3)c2C(N)=O)cc1[N+](=O)[O-] |  | inconclusive: 211% |
| COc1ccccc1CNC(=O)CCn1c(=O)oc2ccccc21 |  | inconclusive: -3.57% [cytotoxic] [at 9.22 µM] |
| O=C(N/N=C/c1ccc(Cl)cc1Cl)c1ccc2nc[nH]c2c1 | inconclusive: 0.146 µM [activator, full curve, poor fit] |  |
| COC(=O)C1CCN(C(=O)C23CCC(C)(C(=O)O2)C3(C)C)CC1 (centres undefined) |  | inactive |
| O=C(c1cccc(N2CCCC2=O)c1)N1CCN(c2ccc(F)cc2)CC1 |  | inconclusive: 6.06% |
| COc1ccc(NC(C)=O)cc1S(=O)(=O)N1CCn2cccc2C1C (centres undefined) | inconclusive: 16.4 µM [activator, partial curve, poor fit] |  |
| CCc1ccccc1NC(=O)CNCC(=O)Nc1ccccc1CC | inconclusive: 18.4 µM [falling, single point] |  |
| COc1ccc(NC(=O)CN2CCN(CC(=O)Nc3ccc(F)cc3)CC2)c(OC)c1 | active: 18.4 µM |  |
| C=CCN1C(=O)C2(OCCCO2)c2cc(C)ccc21 |  | inconclusive: 53.5% |
| COc1ccc(NC(=O)CN(C)S(=O)(=O)c2ccc3c(c2)CCCN3C(C)=O)cc1 | inconclusive: 0.116 µM [activator, full curve] |  |
| CCNC(=S)NNC(=O)c1cc(-c2ccccc2C)nc2ccccc12 |  | inconclusive: -26.8% |
| Cc1ccccc1C(=O)NCC(=O)OC(C)C(=O)NC(C)CCc1ccccc1 (centres undefined) | inconclusive: 1.46 µM [activator, partial curve, poor fit] |  |
| Cc1ccc(CSc2nc3nc(C)cc(C)n3n2)cc1 |  | inconclusive: -100% |
| Cc1ccc2[nH]c3c(=O)n(N)c(=O)[nH]c3c2c1 |  | inconclusive: -30.1% |
| COc1cccc(CNC(=O)C(=O)N2CCC3(CC2)OCCN3S(=O)(=O)c2ccc(C)cc2)c1 |  | inconclusive: 22.8% |
| C/C(=N\Nc1cc(N2CCOCC2)ncn1)c1ccc(O)cc1 | inconclusive: 29.1 µM [falling, single point] |  |
| Cc1ccc(S(=O)(=O)NCC(=O)NCC(=O)OCC(=O)NC(=O)NC(C)(C)C)cc1C | inconclusive: 1.16 µM [activator, partial curve] |  |
| COc1ccc(CC(=O)NNC(=O)c2ccco2)cc1OC |  | inactive |
| C/C(=N\NC(=O)c1cc(C)nc2ccccc12)c1ccco1 |  | inconclusive: 21% |
| COc1ccc(-c2cc(=O)oc3cc(OCC(=O)N(C)C)ccc23)cc1 | inconclusive: 6.51 µM [activator, partial curve, poor fit] |  |

| Structure (SMILES) | Potency | lipid storage change, negative = inhibition |
| --- | --- | --- |
| COc1ccc(CC(=O)NCC2CCCN(Cc3ccc(SC)cc3)C2)cc1 (centres undefined) | inconclusive: 6.51 µM [falling, single point] |  |
| Cc1ccc2nsnc2c1S(=O)(=O)N1CCN(C(=O)C2CCCO2)CC1 (centres undefined) |  | inconclusive: 14.8% |
| O=C(CCNS(=O)(=O)c1ccccc1)NNC(=O)c1csc(N2CCOCC2)n1 |  | inconclusive: 9.43% |
| CCOc1ccccc1N(CC(=O)N1CCc2ccccc2C1)S(C)(=O)=O |  | inconclusive: 1.75% |
| Cc1nn(C)cc1CN1CCC(n2nccc2NC(=O)CCCc2ccccc2)CC1 |  | inconclusive: -8.23% |
| NC(=O)C1CC12c1ccccc1-c1ccccc12 (centres undefined) |  | inconclusive: 0.512% |
| NC(=O)NC(Cc1ccccc1)c1ccccc1 (centres undefined) | inconclusive: 2.91 µM [falling, partial curve, poor fit] |  |
| O=C(Nc1nc2c(s1)CCCC2=O)c1cnccn1 |  | inconclusive: 21.1% |
| Cc1ccc(C(=O)OCc2cc(=O)n3c(C)csc3n2)s1 | inconclusive: 32.6 µM [activator, single point] |  |
| Cc1ccc(NC(=O)CN2C(=O)N/C(=C/c3ccccc3OCc3cccc(C(=O)O)c3)C2=O)cc1 |  | inconclusive: -80.8% |
| O=C(/C=C/c1ccc2c(c1)OCO2)NCc1ccc(F)cc1 |  | inconclusive: 36% |
| O=C(O)CCCC(=O)Nc1ccc(Cl)cc1 |  | inconclusive: 0.466% |
| Cc1ccccc1NC(=O)Cc1c(O)c2ccccc2[nH]c1=O |  | inconclusive: -13.8% |
| CN(Cc1ccco1)c1ncnc2ccc(-c3cccc(Cl)c3)cc12 |  | inconclusive: 11.8% |
| COc1ccc(OCC(=O)O/N=C(\N)c2ccc(OC)c(OC)c2)cc1 | inconclusive: 18.4 µM [activator, single point] |  |
| COc1ccc(COc2cc(-c3cccc(OC)c3)nc3ccc(NC(=O)c4ccc(N(C)C)cc4)cc23)cc1 | inconclusive: 1.84 µM [activator, full curve] |  |
| CN1CCN(S(=O)(=O)c2ccc(N(C)Cc3cccc(F)c3)nc2)CC1 | inconclusive: 29.1 µM [activator, single point] |  |
| COc1ccccc1CN(Cc1cccnc1)S(=O)(=O)c1ccc(-n2cnnn2)c(OC)c1 |  | inconclusive: 40.6% |
| c1ccc2sc(-c3ccncc3)nc2c1 |  | inconclusive: 12% |
| COc1ccccc1-n1c(C)c2c(OC)cccc(=O)c2c1C | inconclusive: 4.61 µM [activator, partial curve] |  |
| COc1ccccc1-c1nc(SCC(=O)Nc2ccccc2)n[nH]1 | inconclusive: 18.4 µM [activator, single point] |  |
| COC(=O)Cn1c(=NC(=O)CN2C(=O)CCC2=O)sc2cc(S(N)(=O)=O)ccc21 | inconclusive: 0.0052 µM [falling, full curve, poor fit] |  |
| CCC(C)c1ccccc1NC(=O)COc1ccc(-n2cnnn2)cc1 (centres undefined) | inconclusive: 1.46 µM [falling, partial curve, poor fit] |  |
| Cc1ccc(CNC(=O)CCn2c(=O)oc3ccccc32)cc1 |  | inconclusive: 7.86% |
| C/C(=N\NC(=O)c1nnn(-c2nonc2N)c1C(C)C)c1cc(C)sc1C |  | inconclusive: 23.4% |

Among those listed so far, 3 contain an aryl thioether with sulfur outside any ring.

| Structure (SMILES) | Potency | lipid storage change, negative = inhibition |
| --- | --- | --- |
| Cc1ccc(CSc2nc3nc(C)cc(C)n3n2)cc1 |  | inconclusive: -100% |
| COc1ccc(CC(=O)NCC2CCCN(Cc3ccc(SC)cc3)C2)cc1 (centres undefined) | inconclusive: 6.51 µM [falling, single point] |  |
| COc1ccccc1-c1nc(SCC(=O)Nc2ccccc2)n[nH]1 | inconclusive: 18.4 µM [activator, single point] |  |

More records:

| Structure (SMILES) | Potency | lipid storage change, negative = inhibition |
| --- | --- | --- |
| N#Cc1ccccc1S(=O)(=O)N1CCN(C(=O)[C@H](Cc2ccccc2)NC(=O)c2ccco2)CC1 | inconclusive: 1.3 µM [activator, partial curve] |  |
| Cc1ccc(CN(c2ccc(C(=O)N3CCc4ccccc4C3)cc2)S(C)(=O)=O)cc1 |  | inconclusive: 45.7% |
| CCc1ccccc1NC(=S)N(CCN(C)C)C(C)c1ccccn1 (centres undefined) |  | inconclusive: 1.45% |
| N#Cc1c(NC(=O)CSc2nnc(-c3ccco3)n2-c2ccccc2)sc2c1CCC2 | inconclusive: 13 µM [activator, partial curve] |  |
| CN1CC2CCCC3(C1)C(=O)NC1(CCCCC1)N=C23 (centres undefined) |  | inconclusive: 1.71% |
| Cc1ccc(NC(=O)N2CCC(O)(c3cccnc3)CC2)cc1 | inconclusive: 2.06 µM [rising, partial curve, poor fit] |  |
| Fc1ccc(COc2ccc(-c3nnco3)cc2)c(Cl)c1 |  | inactive |
| CN1CCC(OC(=O)COc2ccc(Br)cc2)CC1 |  | inconclusive: -14.5% [at 9.22 µM] |
| CC(C)OC(=O)NC(C)(C)COC(=O)Nc1cccc(Cl)c1 |  | inconclusive: -17.8% |
| Cc1ccc(C2c3sc(=O)[nH]c3SC3C4CC(C5C(=O)N(C(C)C(=O)O)C(=O)C45)C23)cc1 (centres undefined) |  | inconclusive: 14.4% |
| O=C(c1ccco1)N1CCN(C(=O)c2ccc(CS(=O)c3ccc(Cl)cc3)o2)CC1 (centres undefined) |  | inconclusive: 59.1% |
| Cc1c(CC(=O)NCCCCCC(=O)O)c(=O)oc2cc3occ(-c4ccccc4)c3cc12 |  | inconclusive: -6.21% |
| C=CCn1c(SCc2cccc(F)c2)nc2cc(C(=O)N3CCC(C(N)=O)CC3)ccc2c1=O | inconclusive: 18.4 µM [activator, single point] |  |
| C/C(N)=C(/C#N)C(=O)CSc1nnnn1-c1ccccc1 |  | inconclusive: -24.9% |
| CC(C)[C@H](N)c1nnc(SCC(=O)c2ccc(Cl)cc2)o1 |  | inconclusive: -12.9% |
| COC(=O)c1cc2c(cc1NC(=O)CSCCc1ccccn1)OCO2 | inconclusive: 6.51 µM [activator, partial curve] |  |
| COc1ccccc1-n1cc([C@@H]2C[C@H]3CN(c4ccccc4)C(=O)[C@]34CCCN24)cn1 |  | inconclusive: -29.6% |
| CC(C)CCNC(=O)CN(C(=O)Cn1nnc(-c2ccccc2F)n1)c1cccc2c1CCCC2 | inconclusive: 23.1 µM [falling, single point] |  |
| Cc1ccc(S(=O)(=O)N2CC(=NO)C2)cc1 |  | inconclusive: 16.5% |
| C=CCSc1nc(=O)n2ccccc2n1 |  | inactive |
| Cc1nn(CC(=O)Nc2ccc(Cl)cn2)c(C)c1[N+](=O)[O-] |  | inconclusive: 48.9% |
| Cc1ccc2c(c1)N(C(=O)CCC(=O)NCCCN1CCC(Cc3ccccc3)CC1)CCO2 |  | inconclusive: -45.6% |
| CCCOc1ccc(C2NC(=O)CCC2[N+](=O)[O-])cc1 (centres undefined) |  | inactive |
| COCCNC(=O)CNC(=S)N(Cc1ccccc1)Cc1cccnc1 | inconclusive: 0.82 µM [activator, full curve, poor fit] |  |
